Assay results published in US20070196377A1.
These are yes or no findings as the source states them, for the method shown. In cells and extracts the contact can be indirect. Some entries that bind do so weakly or less than the wild type.

Protein sequences, listed by entry. Tags and fused reporters are not part of them. Lines headed by an entry give the natural chain unless they say otherwise; changes in a name come on top. Residues count along the entry.
UniProt Q13153, residues 67-150: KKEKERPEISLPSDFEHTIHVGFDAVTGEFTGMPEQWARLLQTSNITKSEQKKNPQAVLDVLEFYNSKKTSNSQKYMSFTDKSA
UniProt P60766: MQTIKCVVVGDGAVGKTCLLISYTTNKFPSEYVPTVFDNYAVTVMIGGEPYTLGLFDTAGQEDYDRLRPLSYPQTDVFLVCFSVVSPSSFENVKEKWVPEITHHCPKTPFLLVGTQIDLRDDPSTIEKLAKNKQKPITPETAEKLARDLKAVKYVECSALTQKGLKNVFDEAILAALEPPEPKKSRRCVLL
UniProt P60953: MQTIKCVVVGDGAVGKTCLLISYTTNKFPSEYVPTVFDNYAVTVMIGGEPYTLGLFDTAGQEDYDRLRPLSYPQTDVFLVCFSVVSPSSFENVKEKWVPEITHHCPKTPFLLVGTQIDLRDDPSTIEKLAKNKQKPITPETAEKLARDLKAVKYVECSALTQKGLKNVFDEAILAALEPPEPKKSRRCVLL
UniProt P10911: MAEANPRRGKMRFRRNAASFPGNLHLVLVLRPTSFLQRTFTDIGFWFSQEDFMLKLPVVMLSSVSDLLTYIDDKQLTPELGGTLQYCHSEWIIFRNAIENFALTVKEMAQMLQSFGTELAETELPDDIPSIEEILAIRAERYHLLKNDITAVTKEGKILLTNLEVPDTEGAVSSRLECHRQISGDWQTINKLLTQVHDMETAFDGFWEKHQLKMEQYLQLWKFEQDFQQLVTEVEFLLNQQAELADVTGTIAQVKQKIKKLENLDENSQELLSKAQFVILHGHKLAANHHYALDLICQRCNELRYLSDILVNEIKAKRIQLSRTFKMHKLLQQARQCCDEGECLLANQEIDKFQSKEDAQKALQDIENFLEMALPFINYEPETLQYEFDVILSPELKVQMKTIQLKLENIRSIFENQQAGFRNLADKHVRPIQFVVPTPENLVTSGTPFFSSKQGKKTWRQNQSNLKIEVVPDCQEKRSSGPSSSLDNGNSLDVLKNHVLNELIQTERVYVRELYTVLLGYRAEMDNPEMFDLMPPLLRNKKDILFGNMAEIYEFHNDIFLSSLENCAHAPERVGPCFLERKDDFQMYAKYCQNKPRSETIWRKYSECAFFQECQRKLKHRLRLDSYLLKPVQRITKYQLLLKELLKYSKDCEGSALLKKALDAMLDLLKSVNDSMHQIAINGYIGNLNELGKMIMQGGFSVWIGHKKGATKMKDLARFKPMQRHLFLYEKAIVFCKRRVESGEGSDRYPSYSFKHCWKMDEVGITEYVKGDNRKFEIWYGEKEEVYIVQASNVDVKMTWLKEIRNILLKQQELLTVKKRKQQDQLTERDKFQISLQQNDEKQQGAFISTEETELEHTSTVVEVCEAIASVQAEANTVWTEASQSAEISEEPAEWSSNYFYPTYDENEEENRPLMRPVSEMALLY

Assays:
[1] = target: GST-fusion protein of the binding domain of PAK-1 on glutathione agarose effector bed (UPSTATE) (UniProt Q13153); test: effector pull-down on GST-PAK-1 binding domain agarose, anti-FLAG Western blot
[2] = target: GST-fusion protein of the binding domain of PAK-1 on glutathione agarose effector bed (UPSTATE) (UniProt Q13153); test: effector pull-down on GST-PAK-1 binding domain agarose, anti-FLAG Western blot (FIG. 3-B)
[3] = target: RhoA expressed as an N-terminal GST-fusion protein (Canis lupus familiaris (Dog) (Canis familiaris)) (UniProt P24406); test: GST pull-down, anti-FLAG Western blot
[4] = target: Cdc42 expressed as an N-terminal GST-fusion protein (Mus musculus (Mouse)) (UniProt P60766); test: GST pull-down, anti-FLAG Western blot

binding [1]	binding [2]	binding [3]	binding [4]	Substance
binds	binds	–	–	Cdc42 expressed as an N-terminal 3×FLAG-tagged protein (from UniProt P60953 1-188)
–	–	binds	binds	proto-Db1 DH/PH (C-terminal FLAG-tagged protein) (from UniProt P10911 494-811)
